This series in a line: Caco-2 bidirectional permeability assay. The following applies: human, Caco-2, pH 7.4, Papp (Basal to Apical), Caco-2, 10 µM, 37 °C.

On to `CC(C)NCC(O)COc1ccc(CC(N)=O)cc1` (stereo not shown) [Atenolol, atenolol], for which the apparent permeability coefficient (Papp) at 2 h, 10 µM was determined as 3 ± 0.2 ×10⁻⁶ cm/s.

The values above are taken from publication PMC9077134 (OncoTargets and therapy, 2022).
